Among the data in article PMC7335789, “Bifurcated binding of the OmpF receptor underpins import of the bacteriocin colicin N into Escherichia coli” (The Journal of Biological Chemistry, 2020) are binding values, retold here.

Results are given in words; binding and its absence hold for the method and conditions named. Some results given as binding are weak or reduced against the parent protein; the word gives no strength.

Assay [1] has as its target T1, OmpF (E. coli (endogenous in B^E3000)) (UniProt P02931).
T1 sequence: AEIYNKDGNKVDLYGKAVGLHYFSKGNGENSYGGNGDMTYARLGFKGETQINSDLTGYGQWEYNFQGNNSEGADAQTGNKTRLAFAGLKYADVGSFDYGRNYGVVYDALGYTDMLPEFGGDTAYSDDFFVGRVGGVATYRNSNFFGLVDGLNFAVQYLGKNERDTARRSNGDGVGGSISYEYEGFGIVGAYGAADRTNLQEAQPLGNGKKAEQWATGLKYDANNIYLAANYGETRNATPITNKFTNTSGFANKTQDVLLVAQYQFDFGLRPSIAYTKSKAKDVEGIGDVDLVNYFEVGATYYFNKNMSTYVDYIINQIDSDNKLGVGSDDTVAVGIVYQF
Briefly: native MS; 10 uM OmpF and 10 uM ColN in 100 mM ammonium acetate pH 6.9, 1% beta-OG, trypsin 37 C 2 h, gel filtration, OmpF fractions analysed in 200 mM ammonium acetate, 1% beta-OG; both purified. (SEC sorts molecules by how far they enter the pores of the column.)

Assay [2] addresses T1, OmpF (E. coli (endogenous in B^E3000)). Nature of the assay: native MS; OmpF with the peptides ColN^2-19 and ColN^20-38; conditions not given; both purified.
Assay [3] addresses T2, OmpF on E. coli cells (E. coli (endogenous in JW2203-1, BW25113, BL21(DE3))) (UniProt P02931).
T2 sequence: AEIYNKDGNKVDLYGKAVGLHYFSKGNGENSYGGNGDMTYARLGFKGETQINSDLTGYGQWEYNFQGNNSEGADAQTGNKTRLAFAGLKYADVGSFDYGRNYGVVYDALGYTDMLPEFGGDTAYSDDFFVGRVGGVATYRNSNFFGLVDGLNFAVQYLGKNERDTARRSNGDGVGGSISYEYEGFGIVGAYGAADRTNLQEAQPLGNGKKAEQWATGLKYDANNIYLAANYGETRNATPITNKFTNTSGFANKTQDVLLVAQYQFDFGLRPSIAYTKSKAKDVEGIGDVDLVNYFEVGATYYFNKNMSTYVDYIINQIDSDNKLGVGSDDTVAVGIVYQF
Briefly: FRAP of labelled cells; only the binder purified.

Assay [4] addresses T3, OmpC on E. coli cells (E. coli (endogenous in JW0912-1)) (UniProt P06996).
T3 sequence: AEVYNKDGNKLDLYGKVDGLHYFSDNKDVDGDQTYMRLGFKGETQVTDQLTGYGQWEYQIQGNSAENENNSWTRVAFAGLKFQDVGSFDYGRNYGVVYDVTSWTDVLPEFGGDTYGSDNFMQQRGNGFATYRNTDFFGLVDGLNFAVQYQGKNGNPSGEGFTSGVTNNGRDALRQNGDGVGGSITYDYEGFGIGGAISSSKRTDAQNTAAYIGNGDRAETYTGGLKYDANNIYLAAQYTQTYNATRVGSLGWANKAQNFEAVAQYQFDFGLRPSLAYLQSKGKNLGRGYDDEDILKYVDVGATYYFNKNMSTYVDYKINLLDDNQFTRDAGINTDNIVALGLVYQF
Nature of the assay: widefield fluorescence microscopy of labelled cells; only the binder purified.

The target of assay [5] is T1, OmpF (E. coli (endogenous in B^E3000)). Nature of the assay: ITC; both purified. (In general: Isothermal titration calorimetry measures the heat released or taken up as one component is titrated into another.)
For assay [6] the target is unchanged. Briefly: immunodiffusion (double diffusion precipitation) assay; 0.5% agarose gel in potassium phosphate buffer pH 6.65, 1% beta-OG; 20 ul of each protein at 17 uM in 3-mm wells, overnight at room temperature; both purified.

In the case of “ColN peptide of mass 3,375 Da (residues 2-38) (from UniProt P08083 2-38)”, the binding result in assay [1] is reported as “binds”.

In the case of “ColN^20-38 peptide (from UniProt P08083 20-38)”, in assay [2], the binding result is on record as “no binding”.

B1: ColN^1-185-mCherry (domain or fragment)
chain: MGSNGADNAHNNAFGGGKNPGIGNTSGAGSNGSASSNRGNSNGWSWSNKPHKNDGFHSDGSYHITFHGDNNSKPKPGGNSGNRGNNGDGASAKVGEITITPDNSKPGRYISSNPEYSLLAKLIDAESIKGTEVYTFHTRKGQYVKVTVPDSNIDKMRVDYVNWKGPKYNNKLVKRFVSQFLLFRK
notes: also called fluorescently labeled ColN
On to B1, for which the binding entry in assay [3] was “binds”; in assay [4], “no binding (tested: 200 nM)”.

As to SGGDGRGHNTGAHSTSG (C-terminal amide (CONH2)) [ColE9 OBS1 peptide (residues 2-18)], the binding result in assay [5] is reported as “binds”.

B2: colicin N (WT ColN) (protein, UniProt P08083 1-387)
chain: MGSNGADNAHNNAFGGGKNPGIGNTSGAGSNGSASSNRGNSNGWSWSNKPHKNDGFHSDGSYHITFHGDNNSKPKPGGNSGNRGNNGDGASAKVGEITITPDNSKPGRYISSNPEYSLLAKLIDAESIKGTEVYTFHTRKGQYVKVTVPDSNIDKMRVDYVNWKGPKYNNKLVKRFVSQFLLFRKEEKEKNEKEALLKASELVSGMGDKLGEYLGVKYKNVAKEVANDIKNFHGRNIRSYNEAMASLNKVLANPKMKVNKSDKDAIVNAWKQVNAKDMANKIGNLGKAFKVADLAIKVEKIREKSIEGYNTGNWGPLLLEVESWIIGGVVAGVAISLFGAVLSFLPISGLAVTALGVIGIMTISYLSSFIDANRVSNINNIISSVIR
Consider B2, for which the binding entry in assay [6] was “binds”.
